# Measured values reported in article PMC11430399, “Cold-induced degradation of core clock proteins implements temperature compensation in the Arabidopsis circadian clock” (Science Advances, 2024).
# Chains of the proteins cited; added tags and fusions are not shown.
# UniProt Q94BT6: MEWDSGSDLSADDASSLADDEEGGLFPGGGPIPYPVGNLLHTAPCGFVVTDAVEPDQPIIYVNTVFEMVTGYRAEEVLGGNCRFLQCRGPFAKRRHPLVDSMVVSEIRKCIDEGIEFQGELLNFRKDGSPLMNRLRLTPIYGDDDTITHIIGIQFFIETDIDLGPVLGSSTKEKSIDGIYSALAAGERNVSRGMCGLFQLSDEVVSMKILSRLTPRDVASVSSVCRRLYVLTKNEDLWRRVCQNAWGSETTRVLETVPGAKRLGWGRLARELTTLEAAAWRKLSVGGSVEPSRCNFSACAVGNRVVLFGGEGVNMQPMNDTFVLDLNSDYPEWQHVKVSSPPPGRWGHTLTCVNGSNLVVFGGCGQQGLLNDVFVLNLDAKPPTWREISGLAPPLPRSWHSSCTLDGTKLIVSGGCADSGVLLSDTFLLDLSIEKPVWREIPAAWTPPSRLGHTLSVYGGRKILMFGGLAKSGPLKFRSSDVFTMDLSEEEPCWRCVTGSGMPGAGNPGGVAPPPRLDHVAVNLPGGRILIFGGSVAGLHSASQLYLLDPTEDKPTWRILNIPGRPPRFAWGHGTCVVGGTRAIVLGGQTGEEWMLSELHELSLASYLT
# UniProt Q8W420: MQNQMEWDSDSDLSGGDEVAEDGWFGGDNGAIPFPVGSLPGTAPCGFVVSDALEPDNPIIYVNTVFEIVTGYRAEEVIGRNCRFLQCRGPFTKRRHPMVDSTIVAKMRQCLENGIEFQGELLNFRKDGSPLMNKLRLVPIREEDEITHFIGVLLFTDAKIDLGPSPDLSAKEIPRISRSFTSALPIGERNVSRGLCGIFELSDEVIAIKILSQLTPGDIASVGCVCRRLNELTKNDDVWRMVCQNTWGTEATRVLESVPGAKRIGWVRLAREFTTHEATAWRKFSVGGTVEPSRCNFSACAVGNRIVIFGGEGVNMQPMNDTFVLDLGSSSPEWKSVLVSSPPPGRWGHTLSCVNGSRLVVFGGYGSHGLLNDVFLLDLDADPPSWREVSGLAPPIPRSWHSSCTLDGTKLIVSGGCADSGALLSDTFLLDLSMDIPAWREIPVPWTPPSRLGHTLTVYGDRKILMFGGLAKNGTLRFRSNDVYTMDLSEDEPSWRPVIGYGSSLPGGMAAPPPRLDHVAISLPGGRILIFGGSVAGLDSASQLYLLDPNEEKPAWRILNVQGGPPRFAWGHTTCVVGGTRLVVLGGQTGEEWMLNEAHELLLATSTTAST
# UniProt Q9C9W9: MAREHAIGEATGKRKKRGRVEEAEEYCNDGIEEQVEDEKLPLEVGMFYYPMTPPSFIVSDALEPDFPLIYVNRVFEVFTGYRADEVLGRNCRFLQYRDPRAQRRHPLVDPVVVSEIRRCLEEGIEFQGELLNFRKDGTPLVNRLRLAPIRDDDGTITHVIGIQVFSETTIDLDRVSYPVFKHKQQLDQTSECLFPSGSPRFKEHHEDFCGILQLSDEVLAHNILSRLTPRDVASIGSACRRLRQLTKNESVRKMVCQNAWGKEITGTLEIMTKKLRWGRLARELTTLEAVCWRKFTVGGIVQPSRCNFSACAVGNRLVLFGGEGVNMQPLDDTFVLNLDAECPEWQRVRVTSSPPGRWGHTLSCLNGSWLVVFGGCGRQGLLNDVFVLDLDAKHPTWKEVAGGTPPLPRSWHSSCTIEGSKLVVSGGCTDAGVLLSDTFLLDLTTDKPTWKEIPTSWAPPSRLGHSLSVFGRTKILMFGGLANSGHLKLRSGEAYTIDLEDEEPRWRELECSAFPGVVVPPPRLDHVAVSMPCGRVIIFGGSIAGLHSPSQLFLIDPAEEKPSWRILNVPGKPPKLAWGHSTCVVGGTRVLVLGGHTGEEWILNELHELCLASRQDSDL
# These are yes or no findings as the source states them, for the method shown. In cells and extracts the contact can be indirect. These calls come from enrichment with a bait or labelling near it, and not all partners need be listed. No binding means not detected with the bait. Sequences can lack the tags named with a protein.
# What was measured:
# [1] = biological target: T1, PSEUDO-RESPONSE REGULATOR 5 with a C-terminal triple FLAG tag (PRR5-FLAG) (Arabidopsis thaliana) (UniProt Q6LA42); test: affinity purification with mass spectrometry; anti-FLAG antibody on Dynabeads Protein G, 2 hours at 4°C, from extracts of 35Sp:TOC1-F or 35Sp:PRR5-F seedlings treated with 100 uM MG132 and kept at 12° or 28°C for 1 day; lysis I buffer 50 mM tris-HCl pH 7.5, 100 mM NaCl, 0.1% Triton X-100; on-bead Lys-C/trypsin digest, nano-LC-MS/MS; three biological replicates
# T1 sequence: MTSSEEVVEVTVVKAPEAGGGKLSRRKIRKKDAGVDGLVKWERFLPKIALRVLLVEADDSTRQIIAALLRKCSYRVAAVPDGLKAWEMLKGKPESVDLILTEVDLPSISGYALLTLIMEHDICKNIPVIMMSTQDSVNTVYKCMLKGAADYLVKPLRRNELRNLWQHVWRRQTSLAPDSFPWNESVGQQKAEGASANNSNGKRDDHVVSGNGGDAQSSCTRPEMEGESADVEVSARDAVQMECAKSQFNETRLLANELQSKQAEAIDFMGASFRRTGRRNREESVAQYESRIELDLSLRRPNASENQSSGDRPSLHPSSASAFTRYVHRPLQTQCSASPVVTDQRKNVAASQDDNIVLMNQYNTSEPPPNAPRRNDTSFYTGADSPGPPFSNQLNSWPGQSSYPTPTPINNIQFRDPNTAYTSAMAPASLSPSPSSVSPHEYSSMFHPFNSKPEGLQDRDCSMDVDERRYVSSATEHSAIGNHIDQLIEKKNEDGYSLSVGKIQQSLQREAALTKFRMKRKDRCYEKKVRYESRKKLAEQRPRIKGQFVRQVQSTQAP
# [2] = biological target: T2, TIMING OF CAB EXPRESSION 1 with a C-terminal triple FLAG tag (TOC1-FLAG) (Arabidopsis thaliana) (UniProt Q9LKL2); test: as above
# T2 sequence: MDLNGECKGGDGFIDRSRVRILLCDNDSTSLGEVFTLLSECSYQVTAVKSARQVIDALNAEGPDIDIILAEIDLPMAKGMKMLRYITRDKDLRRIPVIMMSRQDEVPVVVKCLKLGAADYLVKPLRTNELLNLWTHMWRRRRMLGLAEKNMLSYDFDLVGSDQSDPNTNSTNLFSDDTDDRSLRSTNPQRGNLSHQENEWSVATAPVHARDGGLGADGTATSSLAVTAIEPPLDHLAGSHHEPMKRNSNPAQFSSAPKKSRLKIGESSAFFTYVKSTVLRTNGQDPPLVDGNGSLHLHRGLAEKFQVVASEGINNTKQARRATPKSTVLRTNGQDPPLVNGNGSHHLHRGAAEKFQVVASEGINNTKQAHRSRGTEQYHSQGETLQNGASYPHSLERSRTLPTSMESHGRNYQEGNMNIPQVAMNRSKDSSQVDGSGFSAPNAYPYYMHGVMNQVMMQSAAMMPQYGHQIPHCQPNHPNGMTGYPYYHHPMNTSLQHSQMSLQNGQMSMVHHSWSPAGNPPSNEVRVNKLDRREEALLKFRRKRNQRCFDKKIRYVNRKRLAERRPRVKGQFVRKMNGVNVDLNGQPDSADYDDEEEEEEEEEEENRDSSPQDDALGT
Substance,binding [1],binding [2]
ZEITLUPE (endogenous) (from UniProt Q94BT6 1-609),binds,binds
LOV KELCH PROTEIN 2 (endogenous) (from UniProt Q8W420 1-611),binds,binds
"FLAVIN-BINDING, KELCH REPEAT, F-BOX 1 (endogenous) (from UniProt Q9C9W9 1-619)",no binding,no binding
